From PubChem BioAssay AID504847 (National Center for Advancing Translational Sciences (NCATS), 2011)
“And” between values parts separate entries of the source, which are not always exact repeats. Identical values can stand only once. The campaign covered roughly 400,000 compounds. About 3,700 (0.93%) were called active. Inconclusive means that the source gave no clear call. Such entries were picked first, then a sample of the others. Calls come from the whole dose curve; as a rule, active = well fitted inhibition curve with a large enough effect; inconclusive = small, poorly fitted or top-dose-only effect, or another doubt; inactive = no such curve, though single readings can be large or run the other way. Potencies beside an inconclusive call are fits to weak or partial responses and may not hold up.

Chains of the proteins cited; added tags and fusions are not shown. Lines headed by an entry give the natural chain unless they say otherwise; changes in a name come on top.
UniProt P11473: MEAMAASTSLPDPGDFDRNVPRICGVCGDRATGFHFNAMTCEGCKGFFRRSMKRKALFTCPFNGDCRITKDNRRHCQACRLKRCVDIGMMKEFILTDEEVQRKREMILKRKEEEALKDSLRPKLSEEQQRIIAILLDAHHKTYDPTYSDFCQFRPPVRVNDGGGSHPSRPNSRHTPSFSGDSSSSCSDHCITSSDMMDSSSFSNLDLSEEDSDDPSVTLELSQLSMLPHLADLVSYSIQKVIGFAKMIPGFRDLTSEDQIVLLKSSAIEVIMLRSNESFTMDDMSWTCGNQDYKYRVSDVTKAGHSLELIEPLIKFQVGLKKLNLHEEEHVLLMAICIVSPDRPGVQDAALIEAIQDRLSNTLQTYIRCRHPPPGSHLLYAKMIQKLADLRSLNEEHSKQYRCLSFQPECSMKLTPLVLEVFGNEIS

What follows are compounds tested against Vitamin D3 receptor (Homo sapiens) (UniProt P11473) (assay: Inhibitors of the vitamin D receptor (VDR): qHTS). Settings: VDR-SRC2-3 peptide fluorescence polarization, 2 h; max response, negative = inhibition: active compounds read low.
Summary of the method: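 VDR–SRC2-3 interaction, FP format. Cmpds 23 nl via pintool, brief spin, 2 h ambient incubation.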
% is set by controls: 0 for no effect and ±100 for the full control effect; potency is the fitted concentration of half-maximal effect.

Structure (SMILES)	max response, negative = inhibition	Potency
Cc1cn(C)c(CC(=O)N2CCN(c3cccc(Cl)c3)CC2)c1C(=O)O	inactive: 8.83%	–
COc1ccc(NC(=O)C2C3C=CC(C3)C2C(=O)NCc2ccccn2)c(OC)c1 (stereo unspecified)	–	inconclusive: 31.6 µM [inhibitor, partial curve, poor fit]
Cc1cccc(C2C=C(c3ccc(C)c(C)c3)Nc3nnnn32)c1 (stereo unspecified)	inactive: 6.13%	–
Cc1ccc(C(=O)n2ncn(C)c2=S)cc1	–	inconclusive: 79.4 µM [inhibitor, single point]
CCOC(=O)c1csc(NNC=O)n1	–	inconclusive: 2.82 µM [inhibitor, full curve, poor fit]
COc1ccc2[nH]cc(CCNc3cc(-c4ccccc4Cl)ncn3)c2c1	–	inconclusive: 50.1 µM [inhibitor, partial curve]
CCOC(=O)c1c(-c2ccc(C)o2)csc1NC(=O)CSc1nncs1	–	inconclusive: 89.1 µM [inhibitor, single point]
Cc1ccccc1-n1c(O)cc(=O)[nH]c1=S	inactive: -19.1%	–
Clc1ccc(OCc2nn3c(C4CCCCC4)nnc3s2)cc1	–	inconclusive: 100 µM [inhibitor, single point]
COc1ccc(CCC(=O)NCC(c2ccco2)N2CCc3ccccc32)cc1 (stereo unspecified)	inactive: -10.8%	–
O=C(c1ccco1)N1CCC2(CC1)CCN(c1ccccc1)CC2	–	inconclusive: 28.2 µM [inhibitor, partial curve]
O=C(NCCCn1ccnc1)/C(=C/c1ccco1)NC(=O)c1ccccc1	inactive: 13.8%	–
CCOC(=O)N1CCN(C2=C(NS(=O)(=O)c3ccc(NC(C)=O)cc3)C(=O)c3ccccc3C2=O)CC1	–	inconclusive: 31.6 µM [inhibitor, partial curve]
S=C(NCc1ccccc1)NCc1cccc(CNC(=S)NCc2ccccc2)c1	–	inconclusive: 39.8 µM [inhibitor, single point]
COc1ccc(-c2nc(C#N)c(N3CCc4ccccc4C3)o2)cc1OC	inactive: 9.03%	–
CCN1C(=O)[C@H]2[C@H]3CN=C(SCc4ccc(Cl)cc4)N3[C@@](C)(C(=O)OC)[C@H]2C1=O	inactive: 2.22%	–
CCN(CC)/[N+]([O-])=N/Oc1cc(O/N=[N+](\[O-])N(C)C)c([N+](=O)[O-])cc1[N+](=O)[O-]	–	inconclusive: 56.2 µM [inhibitor, partial curve, poor fit]
CC(=O)OC1CC2C(C)(C)C(=O)CC[C@]2(C)C2CC[C@]3(C)C(=CC(=O)OC3c3ccoc3)[C@]12C (stereo partly specified)	–	inconclusive: 70.8 µM [inhibitor, partial curve, poor fit]
CC(=O)Nc1ccc(/C(N=Nc2ccccc2)=N/N=C(N)N)cc1	–	inconclusive: 28.2 µM [inhibitor, partial curve]
CC1CCCC(NC(=S)Nc2cccc(S(=O)(=O)N(C)C)c2)C1C (stereo unspecified)	inactive: 20.6%	–
CN(C(=O)c1ccc(NC(=O)Cc2cccc(NC(=O)C3CCN(C(=O)C4CCCCC4)CC3)c2)cc1)C1CCCC1	–	inconclusive: 100 µM [inhibitor, partial curve, poor fit]

Structure (SMILES)	max response, negative = inhibition	Potency
CCNc1nc(NCC)n2c(SCC(=O)Nc3ccc(Br)cc3F)nnc2n1	–	active: 70.8 µM
COc1ccccc1/C=C/C(=C1/C(=O)N(c2ccccc2)N=C1C)c1ccc(C)cc1	–	inconclusive: 11.2 µM [inhibitor, partial curve, poor fit]
CC1=C(/C=C/C(=C/C=C/C(C)=C/C(=O)O)c2ccc(C)cc2)C(C)(C)CCC1	–	active: 22.4 µM
O=[N+]([O-])c1cccc(/C=C/c2nc3ccc([N+](=O)[O-])cc3[nH]2)c1	–	inconclusive: 44.7 µM [inhibitor, partial curve, poor fit]
C[n+]1ccc(/C=C/c2ccc3ccccc3c2)cc1	–	inconclusive: 70.8 µM [inhibitor, single point]
C=CCOc1ccc(/C=C2\SC(=S)N(NS(=O)(=O)c3ccccc3)C2=O)cc1	–	inconclusive: 79.4 µM [inhibitor, single point]
CCOc1ccc2nc(N/C(N)=N/C(=S)Nc3ccc(C)c(C)c3)nc(C)c2c1	–	inconclusive: 89.1 µM [inhibitor, single point]
Cc1ccc(F)c(NC(=O)/C(C#N)=C(\O)c2ccc(C(C)(C)C)cc2)c1	–	inconclusive: 44.7 µM [inhibitor, partial curve, poor fit]
Cc1cc(C)n(CC(C)NC(=O)c2cc(COc3c(F)cccc3F)on2)n1 (stereo unspecified)	–	inconclusive: 50.1 µM [inhibitor, partial curve, poor fit]
CCC(Cc1c(I)cc(I)c(O)c1I)C(=O)O (stereo unspecified)	–	active: 31.6 µM
CCCN1CCC(=O)N([C@H](COc2ccccc2)c2ccccc2)CC1	inactive: -18.1%	–
CCOC(=O)c1sc(=S)n(-c2ccccc2)c1NC(C)=O	–	inconclusive: 89.1 µM [inhibitor, single point]
N#CC1=C2SCN(c3ccccc3)CN2C(=O)CC1c1c(Cl)cccc1Cl (stereo unspecified)	–	active: 28.2 µM and active: 22.4 µM
COc1ccc(N2CSC3=C(C#N)C(c4cc(OC)c(OC)cc4OC)CC(=O)N3C2)c(OC)c1 (stereo unspecified)	–	active: 44.7 µM
C=CCNC(=S)NC(=O)c1csc([N+](=O)[O-])c1	–	inconclusive: 70.8 µM [inhibitor, single point]
CNCc1ccccc1Sc1cc(O)ccc1O	–	active: 35.5 µM
CC(C)CCCC(C)C1CCC2C3CC=C4CC(=O)CC[C@@]4(C)C3CC[C@@]12C (stereo partly specified)	–	inconclusive: 39.8 µM [inhibitor, partial curve, poor fit]
CCCCCCCCCCCCCC(=O)O[C@H](CC(=O)O)C[N+](C)(C)C	–	inconclusive: 31.6 µM [inhibitor, partial curve]
CC1Cc2cc(/C(O)=C3/C(=O)C(=O)N(Cc4ccncc4)C3c3ccc(N(C)C)cc3)ccc2O1 (stereo unspecified)	inactive: -9.78%	–
COC(=O)CC1C(C)(C)C(OC(C)=O)C2[C@H](OC(C)=O)[C@]34O[C@]2(O)[C@]1(C)C3CC[C@]1(C)C4=CC(=O)OC1c1ccoc1 (stereo partly specified)	–	inconclusive: 44.7 µM [inhibitor, partial curve, poor fit]
